Data reported in PubChem BioAssay AID2685 (National Center for Advancing Translational Sciences (NCATS), 2010).
Some of the results follow. Further columns of the screen follow, without active or inactive calls. The list favours compounds with an active or inconclusive main result. Words in brackets tell the shape of the fitted curve; partial curves, single points and poor fits give uncertain potencies.

Experiment: qHTS Assay for Lipid Storage Modulators in Drosophila S3 Cells;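 as to cell number change: cells counted by Cell Tracker Red CMTPX staining in the red channel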
Conditions: BODIPY lipid droplet fluorescence, 18-24 h; for cell number change: measured here: cell count max response, cells fed with added oleic acid
Summary of the method: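 Drosophila S3 cells loaded with oleic acid (400 uM, as added) and compounds at several concentrations; lipid droplets imaged by 488-nm laser-scanning cytometry, 500–530 nm intensity and object ratio to cell channel. Percent activity normalized to 20 uM Triacsin C.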

[1] = measured here: lipid fluorescence (Fed channel) AC50, cells fed with added oleic acid
[2] = measured here: cell number channel AC50, cells fed with added oleic acid

| SMILES | cell number change | AC50 [1] | AC50 [2] |
| --- | --- | --- | --- |
| COC(=O)C1C(=O)c2c(n[nH]c2C)CC1(C)C (stereo not drawn) | 29% | 25.9 µM [rising, single point] | – |
| COC(=O)C1CCN(C(=O)COC(=O)c2ccc(=O)n(Cc3ccccc3)n2)CC1 | 7.41% | 0.731 µM [falling, full curve] | – |
| O=C(CN1C(=O)C2CCCCC2C1=O)Nc1ccccc1C(=O)O (stereo not drawn) | – | 20.6 µM [rising, partial curve] | – |
| COc1ccc(/C=N/n2c(C)nc3ccccc3c2=O)cc1 | -6.85% | 8.2 µM [falling, partial curve, poor fit] | – |
| Cn1c(SCc2nc3ccccc3[nH]2)nnc1-c1cnccn1 | -7.8% | – | – |
| CCN(CC(=O)NC1CCS(=O)(=O)C1)S(=O)(=O)c1ccc(C)c(C)c1 (stereo not drawn) | 133% | – | 20.6 µM [rising, single point] |
| CC(=O)N1CCN(S(=O)(=O)c2cccc(C(=O)NCCc3ccc(Cl)cc3)c2)CC1 | – | 0.651 µM [falling, single point] | – |
| CCC(=O)c1cc(F)ccc1OCC(=O)Nc1ccc2c(c1)OCCO2 | 8.2% | 25.9 µM [falling, partial curve, poor fit] | – |
| Cc1cc(C)n(-c2nc(SCCN(C)C)c3c4c(sc3n2)CCCC4)n1 | -22.9% | 6.51 µM [falling, single point] | – |
| Cc1c(C(=O)NCc2ccccc2CN2CCCC2)oc2ccc(F)cc12 | 13.3% | 29.1 µM [rising, single point] | – |
| CCOc1ccc(NS(=O)(=O)c2cc(C(=O)N3CCN(c4ccccc4O)CC3)ccc2Cl)cc1 | 48.1% | – | 9.2 µM [rising, partial curve, poor fit] |
| CCN(CC)c1ccc(C(=O)NNC(=O)C2CSC3(C)CCC(=O)N23)cc1 (stereo not drawn) | -2.2% | 0.651 µM [rising, full curve, poor fit] | – |
| CO/N=C/c1ccc(N2CCCC2)c([N+](=O)[O-])c1 | -16.4% | – | 0.00461 µM [rising, full curve, poor fit] |
| COc1ccc(Cl)cc1NC(=S)NCc1ccc(S(N)(=O)=O)cc1 | -19.3% | – | – |
| CC(=O)c1cccc(NC(=O)Cn2nc(-c3ccccc3Cl)ccc2=O)c1 | -7.45% | – | – |
| O=S(=O)(c1ccc(NC(=S)NCCc2ccccc2)cc1)N1CCOCC1 | 24.2% | 2.59 µM [rising, full curve] | – |
| Cc1nc2sccn2c(=O)c1Cl | -9.51% | 0.00461 µM [rising, full curve, poor fit] | – |
| CC(C)CN(C(=O)C1CCCO1)c1c(N)n(CC(C)C)c(=O)[nH]c1=O (stereo not drawn) | -86.6% | 1.03 µM [falling, partial curve] | 5.8 µM [falling, full curve] |
| Cc1ccc(CNC(=O)c2ccccc2N)cc1 | 13.6% | 29.1 µM [rising, single point] | – |
| COC(=O)CCC(=O)Nc1ccc(S(=O)(=O)Nc2nc(C)cc(C)n2)cc1 | 23% | 29.1 µM [rising, single point] | – |
| O=C(COC(=O)c1ccccc1OCc1ccccc1Cl)NC1CC1 | -1.67% | – | – |

| SMILES | cell number change | AC50 [1] | AC50 [2] |
| --- | --- | --- | --- |
| O=C(NC1CCN(C(=O)Nc2cccc(Cl)c2)CC1)c1ccccc1 | 3.91% | 6.51 µM [rising, single point] | – |
| COc1cccc(-c2nc(-c3ccccc3)c(-c3ccccc3)[nH]2)c1OCC(=O)O | -7.72% | – | – |
| Cc1ccc(Nc2c([N+](=O)[O-])c(=O)n(C)c3ccccc23)cc1C | – | 0.92 µM [rising, full curve] | – |
| CCN(CC(=O)Nc1cccc(F)c1)CC(=O)Nc1ccccc1OC | 30.5% | 29.1 µM [rising, partial curve, poor fit] | 0.164 µM [rising, partial curve, poor fit] |
| O=C(CCc1nnc(CCCCc2ccccc2)o1)NCCN1CCOC1=O | -48.9% | 20.6 µM [falling, single point] | 20.6 µM [falling, partial curve] |
| O=C(NNC(=S)NC(=O)c1cccc([N+](=O)[O-])c1)c1ccc(Br)cc1 | 5.41% | – | – |
| CC(C)C(=O)Nc1cccc(NC(=S)NC(=O)c2cccs2)c1 | 22.4% | 0.651 µM [rising, single point] | – |
| O=C(Nc1ccc(Cl)c(Cl)c1)Nc1ccc([N+](=O)[O-])cn1 | -24.7% | 29.1 µM [falling, single point] | – |
| CC(C)CNC(=O)COC(=O)c1c2c(nc3ccccc13)/C(=C/c1cccs1)CC2 | -43% | 0.651 µM [falling, full curve] | 0.58 µM [falling, full curve] |
| O=C(NCCCn1ccnc1)/C(=C\c1cccnc1)NC(=O)c1ccccc1Br | 1.88% | – | – |
| CCn1nc(C)c(NC(=O)c2ccc(Br)o2)c1C | -21.8% | 29.1 µM [rising, single point] | – |
| COc1cc(C(=O)Nc2cc(C)ccn2)cc(OC)c1OC | – | 0.13 µM [falling, full curve, poor fit] | – |
| Cc1ccc(-c2ccc(CCC(=O)O)n2CC2CCCO2)cc1 (stereo not drawn) | 25% | 1.16 µM [rising, full curve, poor fit] | – |
| O=C(O)c1ccc(S(=O)(=O)Nc2ccc3c(c2)OCCO3)cc1 | -19.8% | – | – |
| COc1ccc(CCN2C(=O)C3C4C=CC(C4)C3C2=O)cc1OC (stereo not drawn) | 7.71% | 16.4 µM [falling, partial curve] | – |
| O=C1CSC(c2cccc([N+](=O)[O-])c2)N1c1ccccc1 (stereo not drawn) | -63.9% | 29.1 µM [falling, single point] | 2.06 µM [falling, partial curve] |
| C=CCn1c(SCc2ccc(C#N)cc2)nnc1-c1cccc(Cl)c1 | – | 0.58 µM [rising, single point] | 4.11 µM [rising, single point] |
| O=C(NNS(=O)(=O)c1ccccc1[N+](=O)[O-])c1cccc(Br)c1 | -23.6% | 29.1 µM [rising, single point] | – |
| CCOC(=O)N1CCN(C(=O)/C(=C\c2cccs2)NC(=O)c2cccs2)CC1 | -1.59% | – | – |
| CCCCn1c(N)c(N(CC(C)C)C(=O)c2cc3c(s2)CCCCC3)c(=O)[nH]c1=O | 34.4% | – | 29.1 µM [rising, single point] |
| Cc1nn(Cc2ccc(Cl)cc2)c(C)c1NC(=O)c1cc(-c2ccc3c(c2)OCO3)on1 | -30.1% | 0.0651 µM [rising, full curve, poor fit] | 29.1 µM [falling, single point] |

| SMILES | cell number change | AC50 [1] | AC50 [2] |
| --- | --- | --- | --- |
| O=C(Nc1ccccc1)c1cccnc1N1CCOCC1 | – | 0.366 µM [falling, full curve, poor fit] | – |
| Cc1ccc(S(=O)(=O)Nc2cccc(C(=O)NCC3CCCO3)c2)cc1F (stereo not drawn) | -62.5% | – | 32.6 µM [falling, single point] |
| COCCCn1c(=S)[nH]c2ccc(N3CCOCC3)cc2c1=O | 93.5% | 23.1 µM [rising, partial curve] | 23.1 µM [rising, partial curve] |
| COc1ccc(C(=O)Nc2ccc(S(=O)(=O)Nc3nccnc3OC)cc2)cc1 | – | 0.651 µM [falling, single point] | – |
| Fc1ccccc1Nc1nc(N2CCOCC2)nc(N2CCOCC2)n1 | 23.3% | 0.651 µM [rising, single point] | – |
| Cc1oc(-c2cccc(Cl)c2)nc1CS(=O)(=O)CC(=O)NCCN1CCOCC1 | 3.75% | 0.164 µM [rising, full curve, poor fit] | – |
| CC1CCN(CCCCOc2ccc(Br)cc2)CC1 | -8.78% | – | 0.731 µM [rising, single point] |
| COc1ccc2c(c1)c(CC(=O)OCC(=O)O)c(C)n2C(=O)c1ccc(Cl)cc1 | – | – | 6.51 µM [falling, single point] |
| CCCSc1nc(=O)n2cc(C)ccc2n1 | 9.97% | 5.8 µM [rising, full curve, poor fit] | – |
| CCN(CC)S(=O)(=O)c1cccc(NC(=O)CN2C(=O)NC3(CCC(C)CC3)C2=O)c1 (stereo not drawn) | 42.6% | – | – |
| CC(=O)Nc1ccc(NC(=O)c2nc(S(=O)(=O)Cc3ccccc3)ncc2Cl)cc1 | 8.22% | 0.0651 µM [falling, full curve, poor fit] | – |
| Cc1ccc(C(=O)N/C(=C\c2ccc(-c3cccc([N+](=O)[O-])c3)o2)C(=O)NCCCN2CCOCC2)cc1 | 16.8% | 18.4 µM [rising, partial curve] | – |
| Cc1nc2ccccn2c1C(=O)NCCCN1CCOCC1 | -20% | 29.1 µM [falling, single point] | – |
| Cc1cc(-c2ccccc2)nc(SCC(=O)N2CCCC2)n1 | 43% | 16.4 µM [rising, partial curve] | – |
| C=CCn1c(SCC(=O)Nc2ccc(C(=O)O)cc2)nc2sc(C)c(C)c2c1=O | -1.13% | 11.6 µM [rising, partial curve, poor fit] | – |
| CCN(C(=O)c1nn(-c2ccc(OC)cc2)c(=O)c2c1c1ccccc1n2C)c1ccc(OC)cc1 | -1.68% | 1.16 µM [falling, full curve, poor fit] | – |
| CC(c1ccc2c(c1)OCO2)n1c(=S)[nH]c2ccccc2c1=O (stereo not drawn) | 17.5% | 2.06 µM [falling, single point] | – |
| COc1ccc(C(CNC(=O)CNC(=O)c2cccc(Cl)c2)N2CCCC2)cc1 (stereo not drawn) | -18.1% | 4.11 µM [rising, partial curve] | – |
| O=P(CCC(F)(F)F)(CCC(F)(F)F)CCC(F)(F)F | -29.7% | 29.1 µM [falling, partial curve] | 0.092 µM [falling, full curve, poor fit] |

Sorted by molecular weight (largest number first): 3 of the compounds above

| SMILES | cell number change | AC50 [1] | AC50 [2] |
| --- | --- | --- | --- |
| Cc1cc(C)n(-c2nc(SCCN(C)C)c3c4c(sc3n2)CCCC4)n1 | -22.9% | 6.51 µM [falling, single point] | – |
| C=CCn1c(SCc2ccc(C#N)cc2)nnc1-c1cccc(Cl)c1 | – | 0.58 µM [rising, single point] | 4.11 µM [rising, single point] |
| O=C(COC(=O)c1ccccc1OCc1ccccc1Cl)NC1CC1 | -1.67% | – | – |
